# Counter-ions that a name gives are not always drawn. ± gives the standard deviation of the averaged measurements. This is one part of the list. The data scatter; read single values as rough.
# Key:
# [1] = tested on: hAMSC donor 1; test: Hoechst total cell count ratio vs vehicle control; higher = more cells (less toxicity)
# [2] = tested on: hAMSC donor 2; test: as above
# [3] = tested on: hAMSC donor 1; test: transgenic luciferase activity (RLU/mg protein) fold change vs vehicle control (ratio); higher = more transgene expression
# [4] = tested on: hAMSC donor 2; test: as above
# [5] = tested on: hAMSC donor 1; test: transfection efficiency (EGFP+ cells / Hoechst count) fold change vs vehicle control (ratio); hAMSC are human adipose-derived mesenchymal stem cells given an EGFP-luciferase plasmid by lipofection; higher = enhanced transfection
# [6] = tested on: hAMSC donor 2; test: as above
# [7] = priming compound concentration 0.2 µM
# [8] = priming compound concentration 1.7 µM
# [9] = priming compound concentration 13 µM
Structure (SMILES),"Hoechst total cell count ratio [1, 7]","Hoechst total cell count ratio [1, 8]","Hoechst total cell count ratio [1, 9]","Hoechst total cell count ratio [2, 7]","Hoechst total cell count ratio [2, 8]","Hoechst total cell count ratio [2, 9]","transgenic luciferase activity [3, 7]","transgenic luciferase activity [4, 7]","transfection efficiency [5, 7]","transfection efficiency [5, 8]","transfection efficiency [5, 9]","transfection efficiency [6, 7]","transfection efficiency [6, 8]","transfection efficiency [6, 9]","transgenic luciferase activity [4, 9]","transgenic luciferase activity [3, 9]","transgenic luciferase activity [3, 8]"
CCN1CCCC1CNC(=O)c1cc(S(=O)(=O)CC)c(N)cc1OC (stereo not drawn) [Amisulpride],1.4 ± 0.11,1.35 ± 0.16,1.32 ± 0.15,0.961 ± 0.043,1.12 ± 0.11,1.28 ± 0.056,0.755 ± 0.34,0.736 ± 0.063,0.647 ± 0.2,1.01 ± 0.39,1.54 ± 0.49,1.55 ± 0.19,0.88 ± 0.041,0.913 ± 0.17,–,–,–
CC(=O)[C@]1(O)Cc2c(O)c3c(c(O)c2[C@@H](O[C@H]2C[C@H](N)[C@H](O)[C@H](C)O2)C1)C(=O)c1ccccc1C3=O [Idarubicin hydrochloride],0.751 ± 0.12,0.213 ± 0.13,0.0457 ± 0.034,0.441 ± 0.11,0.149 ± 0.0056,0.0997 ± 0.019,0.38 ± 0.36,–,2.62 ± 0.57,–,–,1.75 ± 0.34,2.84 ± 0.64,–,0.0018 ± 0.0014,–,–
CC(=O)NC[C@H]1CN(c2ccc(N3CCOCC3)c(F)c2)C(=O)O1 [Linezolid],1.27 ± 0.2,1.25 ± 0.099,1.18 ± 0.054,1.64 ± 0.25,1.43 ± 0.12,1.29 ± 0.044,–,–,1.13 ± 0.16,1.26 ± 0.32,1.83 ± 0.7,1.05 ± 0.1,1.49 ± 0.44,1.37 ± 0.18,–,3.79 ± 0.55,–
CC(C)/N=c1\cc2n(-c3ccc(Cl)cc3)c3ccccc3nc-2cc1Nc1ccc(Cl)cc1 [Clofazimine],1.01 ± 0.1,0.999 ± 0.031,1.07 ± 0.062,0.989 ± 0.12,1.03 ± 0.066,1 ± 0.044,0.812 ± 0.22,–,1.11 ± 0.13,0.981 ± 0.16,0.748 ± 0.1,1.16 ± 0.2,0.961 ± 0.15,1.04 ± 0.2,–,–,–
NC(=O)N1c2ccccc2CC(=O)c2ccccc21 [Oxcarbazepine],1.36 ± 0.057,1.11 ± 0.095,1.28 ± 0.12,1.04 ± 0.068,1.49 ± 0.083,1.16 ± 0.16,–,–,1.05 ± 0.2,1.59 ± 0.16,0.95 ± 0.28,1.34 ± 0.54,0.857 ± 0.14,0.765 ± 0.13,–,0.508 ± 0.27,–
COCC1=C(C(=O)OC(C)OC(=O)OC(C)C)N2C(=O)[C@@H](NC(=O)/C(=N\OC)c3csc(N)n3)[C@H]2SC1 (stereo partly drawn) [Cefpodoxime proxetil],1.39 ± 0.18,1.23 ± 0.11,1.25 ± 0.27,1.18 ± 0.51,1.17 ± 0.1,1.17 ± 0.43,–,–,0.896 ± 0.16,1.29 ± 0.29,0.837 ± 0.19,1.02 ± 0.35,1.46 ± 0.33,0.911 ± 0.12,–,1.32 ± 1.3,–
CCc1nc(N)nc(N)c1-c1ccc(Cl)cc1 [Pyrimethamine],1.55 ± 0.24,1.44 ± 0.11,1.42 ± 0.17,0.635 ± 0.053,1.11 ± 0.2,1.02 ± 0.12,–,–,1.28 ± 0.23,1.16 ± 0.19,1.45 ± 0.31,1.42 ± 0.14,1.26 ± 0.08,1.28 ± 0.25,–,–,0.525 ± 0.14
CCc1oc2ccccc2c1C(=O)c1cc(Br)c(O)c(Br)c1 [Benzbromarone],1.31 ± 0.074,1.28 ± 0.017,1.24 ± 0.077,1.1 ± 0.38,1.05 ± 0.41,1.24 ± 0.11,–,–,1.23 ± 0.17,0.824 ± 0.042,0.973 ± 0.37,1.16 ± 0.26,1.36 ± 0.52,0.837 ± 0.049,–,0.626 ± 0.26,–
